Holding throughout (assay): SAXS; molecular weight from forward scattering I(0) against lysozyme; 5, 10 and 15 mg/ml in 50 mM KPB pH 6.8, 500 mM NaCl, 5 mM DTT; 20 °C; both purified
Assay [1] deals with un-phosphorylated HP1α chromodomain with N-terminal tail (unmod-NCD, amino acids 1–80) (mouse) (UniProt Q61686).
The target in assay [2] is phosphorylated HP1α chromodomain with N-terminal tail (phos-NCD, amino acids 1–80, phosphorylated at Ser11–14) (mouse) (UniProt Q61686).
Assay [3] deals with HP1α chromodomain alone, NCDΔ1–19 (amino acids 20–80) (mouse) (UniProt Q61686).

Chains of the proteins cited; added tags and fusions are not shown. Lines headed by an entry give the natural chain unless they say otherwise; changes in a name come on top. A line that says so, or that is headed by a name, gives the form on record, which may keep a tag or linker.
phosphorylated HP1α chromodomain with N-terminal tail (phos-NCD, amino acids 1–80, phosphorylated at Ser11–14) (Q61686, form named): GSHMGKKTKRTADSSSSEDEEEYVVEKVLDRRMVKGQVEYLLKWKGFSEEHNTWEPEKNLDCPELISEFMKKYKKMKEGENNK
HP1α chromodomain alone, NCDΔ1–19 (amino acids 20–80) (Q61686, form named): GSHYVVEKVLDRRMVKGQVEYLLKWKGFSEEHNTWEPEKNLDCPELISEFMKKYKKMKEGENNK

Among the data in PMC4776139, “Extended string-like binding of the phosphorylated HP1α N-terminal tail to the lysine 9-methylated histone H3 tail” (Scientific Reports, 2016) are binding values, retold here.

Results are given in words; binding and its absence hold for the method and conditions named.

“un-phosphorylated HP1α chromodomain with N-terminal tail (unmod-NCD, amino acids 1–80) (from UniProt Q61686 1-80) (domain or fragment)”: in assay [1], the binding result was “no binding (tested: 5, 10 and 15 mg/ml)”.
Take “phosphorylated HP1α chromodomain with N-terminal tail (phos-NCD, amino acids 1–80, phosphorylated at Ser11–14) (from UniProt Q61686 1-80) (domain or fragment)”: the binding result in assay [2] is “no binding (tested: 5, 10 and 15 mg/ml)”.
With “HP1α chromodomain alone, NCDΔ1–19 (amino acids 20–80) (from UniProt Q61686 20-80) (domain or fragment)”, in assay [3], the binding result was “no binding (tested: 5, 10 and 15 mg/ml)”.
